{"source": "the supplement of paper PMC6411743", "target": "T1, UniProt Q9UI30 and related entries", "T1 sequence (whole entry)": "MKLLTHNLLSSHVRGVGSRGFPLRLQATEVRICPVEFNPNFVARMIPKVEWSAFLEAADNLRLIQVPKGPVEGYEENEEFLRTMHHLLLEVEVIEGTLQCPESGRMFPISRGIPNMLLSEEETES", "assay": "NP40-soluble protein abundance relative to vehicle (solubility fold change) (ratio); higher = more soluble protein in presence of GTP", "protocol": "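Solubility proteome profiling in Jurkat crude lysate. Lysate was treated with Mg-GTP (0.1-10 mM) for 10 min at room temperature and 3 min at 37 °C, then solubilised with 0.8% NP40 and benzonase, followed by ultracentrifugation. Proteins were quantified by TMT10 LC-MS/MS; the value is the NP40-soluble abundance relative to the NP40-processed vehicle, from 3 independent experiments.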", "note": "± gives the standard deviation of the averaged measurements. This is one part of the list.", "data": [{"smiles": "Nc1nc2c(ncn2[C@@H]2O[C@H](COP(=O)(O)OP(=O)(O)OP(=O)(O)O)[C@@H](O)[C@H]2O)c(=O)[nH]1", "note": "[guanosine triphosphate]", "values": [{"measurement": "NP40-soluble protein abundance", "setting": "concentration: 0.1mM", "result": "1 ± 0.13"}, {"measurement": "NP40-soluble protein abundance", "setting": "concentration: 0.5mM", "result": "0.979 ± 0.088"}, {"measurement": "NP40-soluble protein abundance", "setting": "concentration: 1mM", "result": "1.08 ± 0.13"}, {"measurement": "NP40-soluble protein abundance", "setting": "concentration: 2mM", "result": "1.08 ± 0.13"}, {"measurement": "NP40-soluble protein abundance", "setting": "concentration: 4mM", "result": "1.03 ± 0.15"}, {"measurement": "NP40-soluble protein abundance", "setting": "concentration: 6mM", "result": "1.07 ± 0.12"}, {"measurement": "NP40-soluble protein abundance", "setting": "concentration: 8mM", "result": "0.957 ± 0.14"}, {"measurement": "NP40-soluble protein abundance", "setting": "concentration: 10mM", "result": "1.04 ± 0.1"}]}]}
